Source: PMC9163039
Results are given in words; binding and its absence hold for the method and conditions named. Some results given as binding are weak or reduced against the parent protein; the word gives no strength.

Sequences of proteins named here, by UniProt entry; tags and fusion partners are left off.
UniProt P0DMV8: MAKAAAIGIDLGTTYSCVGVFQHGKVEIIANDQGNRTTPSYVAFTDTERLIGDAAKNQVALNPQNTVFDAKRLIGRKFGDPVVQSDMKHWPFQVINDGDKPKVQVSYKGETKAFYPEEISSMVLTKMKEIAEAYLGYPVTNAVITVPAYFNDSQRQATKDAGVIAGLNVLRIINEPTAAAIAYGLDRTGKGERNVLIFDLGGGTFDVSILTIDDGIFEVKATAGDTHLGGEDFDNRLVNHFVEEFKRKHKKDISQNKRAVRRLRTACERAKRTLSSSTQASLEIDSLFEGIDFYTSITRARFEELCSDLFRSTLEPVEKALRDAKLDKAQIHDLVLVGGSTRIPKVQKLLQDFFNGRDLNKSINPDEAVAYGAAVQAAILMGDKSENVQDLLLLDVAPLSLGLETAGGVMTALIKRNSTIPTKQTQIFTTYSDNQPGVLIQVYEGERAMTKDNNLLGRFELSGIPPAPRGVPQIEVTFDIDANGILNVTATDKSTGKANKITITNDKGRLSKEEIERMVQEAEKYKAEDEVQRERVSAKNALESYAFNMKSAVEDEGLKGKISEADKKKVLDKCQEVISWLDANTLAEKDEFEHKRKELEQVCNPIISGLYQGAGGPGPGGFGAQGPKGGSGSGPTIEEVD
UniProt O95816: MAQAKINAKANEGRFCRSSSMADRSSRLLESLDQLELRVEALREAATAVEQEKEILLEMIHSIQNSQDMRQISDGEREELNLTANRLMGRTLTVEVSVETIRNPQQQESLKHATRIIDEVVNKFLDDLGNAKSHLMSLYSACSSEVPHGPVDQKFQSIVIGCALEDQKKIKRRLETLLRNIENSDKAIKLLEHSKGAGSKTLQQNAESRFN

Biological target: Hsp72 (Hsp70), apo, biotinylated (human) (UniProt P0DMV8)
Assay: flow cytometry protein interaction assay (FCPIA); biotinylated Apo-Hsp72 immobilized on streptavidin coated polystyrene beads, incubated with Alexa Fluor 488 labeled BAG2 protein; median bead-associated fluorescence; biocytin-capped beads subtracted; both purified

binding: binds
Substance: BAG2, recombinant, labeled with Alexa Fluor 488 (from UniProt O95816 1-211)
